According to article PMC11234209:
These are yes or no findings as the source states them, for the method shown. Binding seen in cells or lysates may run through a third protein. Some binding calls cover weakened binding; strength is not graded here. For some assays here: Where a sequence is shown, tags or fusion partners need not be part of it.

Amino acid sequences for entries named in this document (tags omitted).
UniProt P54578: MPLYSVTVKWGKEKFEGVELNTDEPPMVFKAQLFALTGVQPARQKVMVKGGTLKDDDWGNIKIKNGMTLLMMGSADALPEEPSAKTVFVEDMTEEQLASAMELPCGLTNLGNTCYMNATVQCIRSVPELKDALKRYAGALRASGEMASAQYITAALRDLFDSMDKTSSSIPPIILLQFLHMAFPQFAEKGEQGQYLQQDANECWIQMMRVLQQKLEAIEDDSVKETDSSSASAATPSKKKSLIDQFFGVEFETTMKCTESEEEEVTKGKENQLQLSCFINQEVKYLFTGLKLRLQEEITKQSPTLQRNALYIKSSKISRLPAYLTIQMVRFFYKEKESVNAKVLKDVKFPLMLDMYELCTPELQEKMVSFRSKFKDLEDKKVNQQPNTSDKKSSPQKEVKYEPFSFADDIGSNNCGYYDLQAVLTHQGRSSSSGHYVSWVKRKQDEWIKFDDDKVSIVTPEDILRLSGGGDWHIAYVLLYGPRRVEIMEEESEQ

Assays:
[1] = target: exogenous USP14 (cotransfected with GFP-CIB1) (human) (UniProt P54578); assay: co-IP; HEK293T and PLC-R cells cotransfected with exogenous CIB1 and USP14; reciprocal co-IP with anti-Flag antibodies (Fig. 3i; Fig. S3e); Western blot
[2] = target: ubiquitin-specific protease 14 (USP14), endogenous (human (endogenous in PLC-R)) (UniProt P54578); assay: co-IP; endogenous proteins (Fig. S3g); cell line and precipitating antibody not stated

Row | Binder | binding [1] | binding [2]
1 | GFP-CIB1 (protein, UniProt Q99828 1-191) MGGSGSRLSKELLAEYQDLTFLTKQEILLAHRRFCELLPQEQRSVESSLRAQVPFEQILSLPELKANPFKERICRVFSTSPAKDSLSFEDFLDLLSVFSDTATPDIKSHYAFRIFDFDDDGTLNREDLSRLVNCLTGEGEDTRLSASEMKQLIDNILEESDIDRDGTINLSEFQHVISRSPDFASSFKIVL | binds | –
2 | calcium- and integrin-binding protein 1 (CIB1), endogenous (protein, UniProt Q99828 1-191) MGGSGSRLSKELLAEYQDLTFLTKQEILLAHRRFCELLPQEQRSVESSLRAQVPFEQILSLPELKANPFKERICRVFSTSPAKDSLSFEDFLDLLSVFSDTATPDIKSHYAFRIFDFDDDGTLNREDLSRLVNCLTGEGEDTRLSASEMKQLIDNILEESDIDRDGTINLSEFQHVISRSPDFASSFKIVL | – | binds
